This is an account of results in patent US5378822.

Chains of the proteins cited; added tags and fusions are not shown. A line that says so, or that is headed by a name, gives the form on record, which may keep a tag or linker.
AhR-ARNT in Hepa 1c1c7 cytosol (Mus musculus), one chain, as listed by the source: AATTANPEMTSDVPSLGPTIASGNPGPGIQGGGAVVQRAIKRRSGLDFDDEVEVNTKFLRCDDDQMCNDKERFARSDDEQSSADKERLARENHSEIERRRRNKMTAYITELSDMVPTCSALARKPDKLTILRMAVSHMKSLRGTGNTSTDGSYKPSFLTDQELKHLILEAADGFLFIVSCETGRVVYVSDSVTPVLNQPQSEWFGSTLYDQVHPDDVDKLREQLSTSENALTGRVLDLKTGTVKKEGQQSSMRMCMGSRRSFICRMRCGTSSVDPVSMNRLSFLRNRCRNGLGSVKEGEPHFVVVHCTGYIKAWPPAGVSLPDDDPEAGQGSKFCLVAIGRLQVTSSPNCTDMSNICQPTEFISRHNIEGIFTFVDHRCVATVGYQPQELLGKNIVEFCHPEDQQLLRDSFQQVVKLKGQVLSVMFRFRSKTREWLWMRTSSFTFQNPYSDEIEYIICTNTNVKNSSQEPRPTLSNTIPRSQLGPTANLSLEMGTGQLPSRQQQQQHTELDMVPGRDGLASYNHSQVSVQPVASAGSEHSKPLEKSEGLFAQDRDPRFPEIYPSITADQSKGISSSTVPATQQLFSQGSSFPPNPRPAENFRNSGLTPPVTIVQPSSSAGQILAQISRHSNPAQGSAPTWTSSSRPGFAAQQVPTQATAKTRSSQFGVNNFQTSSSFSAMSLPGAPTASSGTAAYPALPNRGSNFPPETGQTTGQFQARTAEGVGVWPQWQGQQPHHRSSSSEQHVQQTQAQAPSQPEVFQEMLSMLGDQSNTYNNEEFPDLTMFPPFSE
AhR-ARNT in human SCC cell cytosol (Homo sapiens), one chain, as listed by the source, chain 1 of 2: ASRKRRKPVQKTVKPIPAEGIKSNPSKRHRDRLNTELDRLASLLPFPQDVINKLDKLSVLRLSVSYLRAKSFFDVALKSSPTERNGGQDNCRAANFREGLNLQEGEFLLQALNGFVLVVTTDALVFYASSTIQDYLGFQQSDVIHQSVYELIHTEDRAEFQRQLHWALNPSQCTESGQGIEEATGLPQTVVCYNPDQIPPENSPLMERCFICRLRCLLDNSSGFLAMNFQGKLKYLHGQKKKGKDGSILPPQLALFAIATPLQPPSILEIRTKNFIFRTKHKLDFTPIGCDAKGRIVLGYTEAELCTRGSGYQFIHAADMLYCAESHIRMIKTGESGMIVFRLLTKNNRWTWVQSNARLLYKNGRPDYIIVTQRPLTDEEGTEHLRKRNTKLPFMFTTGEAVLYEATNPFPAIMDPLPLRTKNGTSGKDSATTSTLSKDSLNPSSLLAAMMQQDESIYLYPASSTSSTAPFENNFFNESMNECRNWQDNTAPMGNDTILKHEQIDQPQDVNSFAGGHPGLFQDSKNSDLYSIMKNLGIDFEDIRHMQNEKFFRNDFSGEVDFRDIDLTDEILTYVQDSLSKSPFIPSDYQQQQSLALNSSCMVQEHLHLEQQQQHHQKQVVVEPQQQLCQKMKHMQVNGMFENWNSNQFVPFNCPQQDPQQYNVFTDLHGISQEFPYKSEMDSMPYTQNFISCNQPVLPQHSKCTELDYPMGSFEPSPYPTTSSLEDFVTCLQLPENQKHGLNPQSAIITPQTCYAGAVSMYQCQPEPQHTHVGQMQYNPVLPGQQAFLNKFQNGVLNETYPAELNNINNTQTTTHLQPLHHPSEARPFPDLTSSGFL
AhR-ARNT in human SCC cell cytosol (Homo sapiens), one chain, as listed by the source, chain 2 of 2: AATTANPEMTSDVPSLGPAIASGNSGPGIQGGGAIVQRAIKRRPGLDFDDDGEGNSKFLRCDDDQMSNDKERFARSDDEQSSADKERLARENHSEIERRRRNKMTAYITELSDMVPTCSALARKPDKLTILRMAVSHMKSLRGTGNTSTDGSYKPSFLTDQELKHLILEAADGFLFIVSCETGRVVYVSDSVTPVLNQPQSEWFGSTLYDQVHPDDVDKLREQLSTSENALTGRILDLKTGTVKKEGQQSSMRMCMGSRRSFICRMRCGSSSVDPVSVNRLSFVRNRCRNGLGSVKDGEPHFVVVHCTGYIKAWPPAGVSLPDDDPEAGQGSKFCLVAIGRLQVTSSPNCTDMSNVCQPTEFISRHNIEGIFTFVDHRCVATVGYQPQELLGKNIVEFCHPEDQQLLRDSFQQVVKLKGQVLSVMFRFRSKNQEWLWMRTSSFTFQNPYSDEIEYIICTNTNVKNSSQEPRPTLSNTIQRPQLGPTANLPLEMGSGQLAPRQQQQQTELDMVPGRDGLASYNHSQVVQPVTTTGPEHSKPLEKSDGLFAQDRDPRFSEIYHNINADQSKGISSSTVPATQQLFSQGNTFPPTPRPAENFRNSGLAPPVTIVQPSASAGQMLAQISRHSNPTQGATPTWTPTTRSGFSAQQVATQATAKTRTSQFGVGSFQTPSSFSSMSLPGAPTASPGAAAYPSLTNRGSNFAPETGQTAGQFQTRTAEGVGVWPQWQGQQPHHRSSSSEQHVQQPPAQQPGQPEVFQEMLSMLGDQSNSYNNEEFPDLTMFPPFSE

Holding throughout (test): EMSA
On the technique in general: A gel shift assay detects complexes by their altered migration in electrophoresis.

Data set [1] addresses T1, AhR (murine) alone (Mus musculus) (UniProt Q8R4S5).
T1 sequence: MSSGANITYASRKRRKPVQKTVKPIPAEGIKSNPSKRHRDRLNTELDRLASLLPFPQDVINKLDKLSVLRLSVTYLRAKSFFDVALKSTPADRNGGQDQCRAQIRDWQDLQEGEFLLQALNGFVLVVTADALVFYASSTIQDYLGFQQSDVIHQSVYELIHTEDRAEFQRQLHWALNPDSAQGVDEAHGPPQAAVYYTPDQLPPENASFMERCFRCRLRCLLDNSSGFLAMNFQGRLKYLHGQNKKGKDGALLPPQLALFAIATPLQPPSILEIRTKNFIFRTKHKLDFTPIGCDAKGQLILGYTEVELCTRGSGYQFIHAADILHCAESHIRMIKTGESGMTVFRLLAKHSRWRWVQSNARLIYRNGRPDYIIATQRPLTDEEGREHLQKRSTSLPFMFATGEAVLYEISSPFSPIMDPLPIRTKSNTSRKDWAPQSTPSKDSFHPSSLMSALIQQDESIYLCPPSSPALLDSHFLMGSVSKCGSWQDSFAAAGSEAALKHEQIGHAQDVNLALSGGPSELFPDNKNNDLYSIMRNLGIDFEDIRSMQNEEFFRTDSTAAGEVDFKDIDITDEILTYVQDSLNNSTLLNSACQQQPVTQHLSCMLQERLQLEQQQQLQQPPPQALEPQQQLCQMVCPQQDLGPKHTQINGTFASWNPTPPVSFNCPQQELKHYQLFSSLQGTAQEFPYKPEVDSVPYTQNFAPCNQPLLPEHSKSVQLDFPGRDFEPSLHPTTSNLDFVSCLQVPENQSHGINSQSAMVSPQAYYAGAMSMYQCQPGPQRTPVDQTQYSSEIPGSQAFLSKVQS
The following applies: no binding without ARNT; protein translated in vitro; label: 32P end-label.

The test system of data set [2] is AhR-ARNT in Hepa 1c1c7 cytosol (Mus musculus). The note with it: 20 nM TCDD, 30 C; 35 ug cytosol; ligand dependent; protein in an extract; label: 32P end-label.
Data set [3] concerns AhR-ARNT in human SCC cell cytosol (Homo sapiens). The following applies: 20 nM TCDD, room temperature; 35 ug cytosol; ligand dependent; protein in an extract; label: 32P end-label.

For part of these data: At least one result comes from cells or an extract, where the contact may be indirect. For part of these data: Construct, isoform or probe ends are uncertain for at least one entry. For part of these data: Negatives hold for the conditions tested. For part of these data: Protein sequences can lack the tags named with them.

In the case of “TCGAGTAGATCACGCAATGGGCCCAGC / TCGAGCTGGGCCCATTGCGTGATCTAC [DRE3]”, the binding result is reported as “no binding” in data set [1], “binds” in data set [2] and “binds” in data set [3].
